# Data as given in article PMC6114082, “Synthesis of aminophenylhydroxamate and aminobenzylhydroxamate derivatives and in vitro screening for antiparasitic and histone deacetylase inhibitory activity” (International Journal for Parasitology: Drugs and Drug …, 2018).
# System: T. gondii deacetylase activity (total protein extract)
# Experiment: Deacetylase activity of total protein extract of T. gondii tachyzoites
# Type: biochemical, Toxoplasma gondii
# Settings: 0.125 μM
# Description: The HDACi effect against HeLa nuclear extracts and recombinant proteins were measured using a fluorometric HDAC assay kit (Active Motif, Belgium) according to the manufacturer's instructions. Briefly, 30 μL of HeLa nuclear extract (Active Motif, Belgium) or various HDAC recombinant proteins (Active Motif, Belgium) was mixed with 5 μL of a 10 × compound and 10 μL of assay buffer. A negative control containing trichostatin A at a final concentration of 2 μM was analyzed for each independent experiment. A fluorogenic substrate (10 μL) was added, and the reaction was allowed to proceed for 30 min at room temperature and then stopped by the addition of a developer containing trichostatin A. The fluorescence was monitored after 30 min at excitation and emission wavelengths of 360 and 460 nm, respectively.
# HDAC activity was determined from total protein extracted from T. gondii. […]
smiles,measurement,value
"O=C(CCCCCCC(=O)Nc1ccccc1)NO [SAHA, vorinostat, reference compound]",inhibition of T. gondii deacetylase activity,22%
